Data reported in patent US20040043420A1, “Method of identifying conformation-sensitive binding peptides and uses thereof” (priority 2003, published 2004).

What was measured:
[1] = biological target: Estrogen Receptor (Homo sapiens (Human)); test: phage peptide, unliganded ER
[2] = biological target: Estrogen Receptor (Homo sapiens (Human)); test: phage peptide, ER + estradiol
[3] = biological target: Estrogen Receptor (Homo sapiens (Human)); test: phage isolation method (Table 3)

Binder | binding [1] | binding [3] | also measured
SRWESPLGTWEWSR [phage 4] | binds |  | 
HSFPRESLLVRLLQGG [phage 42] |  |  | binding [2]: binds
HGPLTLNLLRSSGG [#41 ER + estradiol] |  | binds | 
SAACATISHYLMGG [#48 ER] |  | binds | 
SSWVVLRDLPWGSR [phage 29] | binds |  | 

Results are given in words; binding and its absence hold for the method and conditions named. Binding can be weak; no strength is given.
